## Library screen at single concentrations

Source: ChEMBL document CHEMBL3988442, “University of Dundee, Small-Polar-MMV Screening Library” (2021).

Results are given as percent effect.
The record does not define 0% and 100%; most values in the screen are far below 50% and negative numbers occur (in some assays of this library far below -100).
The compounds are a random part of those screened.
Two or more numbers in one place are separate tests of the same structure; such repeats can differ widely.

Mtb cholesterol medium: 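Whole-cell growth test on Mycobacterium tuberculosis, read after 4 days in a medium based on cholesterol and the lipid DPPC; the read-out is not stated. Tested at 50 µM. The record gives no direction; compounds that gave an IC50 in retests scored well above the rest, so higher reads as more growth inhibition. Size under these conditions: about 69,000 compounds, about 370 of them at 50% or above in at least one test.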
Mtb glucose medium: 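Growth of Mycobacterium tuberculosis over 3 days (7H9 medium with glucose and tyloxapol); the read-out is not stated. Tested at 50 µM. Higher reads as more growth inhibition (inferred: compounds with an IC50 in retests scored well above the rest). About 69,000 compounds were tested under these conditions; 1.1% (about 760) showed 50% or more at least once.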

* CCn1ccnc1CN1CCC(Oc2cccc(F)c2)(C(=O)O)CC1 | Mtb cholesterol medium: 18.84%; Mtb glucose medium: 7.265%
* COc1ccc(CNCc2nnc3n2CC(C(F)(F)F)CC3)cc1 (stereo not drawn) | Mtb cholesterol medium: -14.91%; Mtb glucose medium: -21.99%
* COc1ccccc1C1(O)CCCN(C(=O)c2ccnn2C(C)C)C1 (stereo not drawn) | Mtb cholesterol medium: 16.86%; Mtb glucose medium: 11.87%
* [H][C@@]12CN(S(=O)(=O)c3ccccc3F)C[C@@]1([H])OCC(=O)N2 | Mtb cholesterol medium: -17.55%; Mtb glucose medium: 6.155%
* COc1cccc(CN2CCC(CO)(Cc3ccc(Cl)cc3)CC2)c1O | Mtb cholesterol medium: 26.06% & 44.85%; Mtb glucose medium: 39.44% & 40.68%
* CCC/C=C/c1ccc(CN2CCCC2)cn1 | Mtb cholesterol medium: 10.09%; Mtb glucose medium: -0.8564%
* CC(C)Cn1cc(NC(=O)NCC2CCN(c3ccccc3)C2)cn1 (stereo not drawn) | Mtb cholesterol medium: 5.223%; Mtb glucose medium: 29.76%
* COCCN(C)C(C(=O)O)c1cc(Cl)ccc1OC (stereo not drawn) | Mtb cholesterol medium: -12.11% & -8.117%; Mtb glucose medium: -28.96%
* [H][C@]12CN(C(=O)c3ccno3)CCN1C(=O)N(CCOC)C2 | Mtb cholesterol medium: -16.6%; Mtb glucose medium: -22.11% & -3.986%
* [H][C@@]12CN(CC(C)C)C[C@]1([H])C(=O)NC21CCN(C(=O)c2cccnc2)CC1 | Mtb cholesterol medium: 18.86%; Mtb glucose medium: 2.771%
* COC(=O)N1CCCCC1C(=O)N1CCN(c2cccnc2)CC1 (stereo not drawn) | Mtb cholesterol medium: -15.3%; Mtb glucose medium: 1.959% & -0.6893%
* Nc1nccnc1C(=O)N(Cc1ccccc1O)CC1CCCO1 (stereo not drawn) | Mtb cholesterol medium: 0.1766%; Mtb glucose medium: -0.7504% & 13.95%
* CCOCC1CN(C(=O)c2cccnc2)Cc2cnn(C)c21 (stereo not drawn) | Mtb cholesterol medium: -6.366%; Mtb glucose medium: 1.116%
* CNS(=O)(=O)c1cc(C(=O)NC2CCOc3ccccc32)cc(C)c1C (stereo not drawn) | Mtb cholesterol medium: -0.1496%; Mtb glucose medium: 0.5171% & -5.453%
* O=C(c1cc(C2CC2)[nH]n1)N1CCN(c2nccs2)CC1 | Mtb cholesterol medium: -29.46%; Mtb glucose medium: -24.46%
* [H][C@@]12CN(C(=O)C3CCOCC3)C[C@@]1([H])N(CC1CC1)C(=O)CO2 | Mtb cholesterol medium: -17.28%; Mtb glucose medium: -28.55%
* O=C(CCN1CCCO1)N1CC[C@@H](CNC(=O)N2CCCC2)[C@H](O)C1 | Mtb cholesterol medium: -22.06%; Mtb glucose medium: -24.39% & -9.113%
* CN(C)C(=O)COCc1nnc2n1CCN(Cc1ccsc1)C2.O=C(O)C(F)(F)F | Mtb cholesterol medium: -1.227%; Mtb glucose medium: -10.72% & -11.08%
* Cc1[nH]ccc1C(=O)N1CCCC(c2ccc(C(=O)O)cc2)C1 (stereo not drawn) | Mtb cholesterol medium: -3.652%; Mtb glucose medium: -8.801%
* Cn1cc(N2CC3(CCN(Cc4nccn4C)C3)CC2=O)cn1.O=C(O)C(F)(F)F (stereo not drawn) | Mtb cholesterol medium: -1.359% & -5.555%; Mtb glucose medium: -13.54%
* Cc1nc(CSCCC(=O)NCc2cccnc2N(C)C)cs1 | Mtb cholesterol medium: -5.595%; Mtb glucose medium: 10.14%
* Cn1cc(CN2CC[C@H](O)[C@@H](n3ccc(=O)[nH]c3=O)CC2)cn1 | Mtb cholesterol medium: -4.518%; Mtb glucose medium: 13.56%
* COc1ccc(OC)c(C(O)CNC(=O)Nc2ccc(F)cc2F)c1 (stereo not drawn) | Mtb cholesterol medium: -21.67%; Mtb glucose medium: -9.644%
* O=C(O)C(F)(F)F.O=C(O)C(F)(F)F.[H][C@@]12OCCN(CC3CCOCC3)[C@@]1([H])CC[C@H]2Oc1ccccn1 | Mtb cholesterol medium: -6.512%; Mtb glucose medium: -31.15% & -3.354%
* O=C(Cn1nc(-c2cccs2)ccc1=O)N1CCCCCC1 | Mtb cholesterol medium: 19.41%; Mtb glucose medium: 9.199%
* Cn1cc(C(=O)Nc2cc(F)ccc2OCC2CCCO2)ccc1=O (stereo not drawn) | Mtb cholesterol medium: 1.987%; Mtb glucose medium: -8.591%
* COCCC(=O)N1CCCC1c1nccnc1Nc1ncccn1 (stereo not drawn) | Mtb cholesterol medium: -9.658%; Mtb glucose medium: -48.4%
* O=C(NCc1nnc2n1CCC2)c1cn(-c2ccccc2)nn1 | Mtb cholesterol medium: -33.86%; Mtb glucose medium: -24.8%
* CN(C)C(=O)c1ccc(CNC(=O)NCCN(C)C2CCCC2)cc1 | Mtb cholesterol medium: -20.08%; Mtb glucose medium: 4.954%
* [H][C@]12CCN(C(=O)Cc3ccsc3)C[C@@]1([H])OCCN(CCN(C)C)C2 | Mtb cholesterol medium: -13.42%; Mtb glucose medium: -3.332%
* CCC(=O)N1CSCC1C(=O)N(C)CCc1ccccc1 (stereo not drawn) | Mtb cholesterol medium: -21.33%; Mtb glucose medium: 9.727% & 0.4907%
* CCC[C@H]1CN(CCCO)C[C@@H]1NC(=O)Cn1cc(C)cn1 | Mtb cholesterol medium: -34.51%; Mtb glucose medium: -14.96%
* CCOc1ccc(CN(C)C2CCN(c3cc(C)nn3C)C2=O)cc1 (stereo not drawn) | Mtb cholesterol medium: 11.9%; Mtb glucose medium: 48.03%
* COCCOc1ccc(NC(=O)C2CC(=O)N(C)C2)cn1 (stereo not drawn) | Mtb cholesterol medium: -23.8%; Mtb glucose medium: -39.98%
* Cc1cnn(C2CN(c3ccccc3S(=O)(=O)C(F)(F)F)C2)c1 | Mtb cholesterol medium: 50.4%; Mtb glucose medium: 53.78%
* [H][C@@]12CCC(=O)N(CCc3ccc(C)o3)[C@]1([H])CCN(Cc1cnn(C)c1)C2 | Mtb cholesterol medium: -5.746% & 5.822%; Mtb glucose medium: 13.3%
* c1cnc(N2CCC(c3n[nH]c4ncccc34)C2)nc1 (stereo not drawn) | Mtb cholesterol medium: 1.19%; Mtb glucose medium: 12.3%
* CC(C)n1cnnc1Cn1c(=O)ccc2ccccc21 | Mtb cholesterol medium: 8.136%; Mtb glucose medium: -9.458%
* Cn1cnnc1CNC(=O)Nc1cc(C(F)(F)F)c[nH]c1=O | Mtb cholesterol medium: 0.06428%; Mtb glucose medium: -0.05273%
* c1ccn(Cc2nnc3n2CCCN(c2cnccn2)C3)c1 | Mtb cholesterol medium: -17.81%; Mtb glucose medium: -29.07%
* CCN(C(=O)CNc1cc(C)c(F)cc1C(N)=O)C1CC1 | Mtb cholesterol medium: 4.777%; Mtb glucose medium: 23.16%
* CC(C)COCCC(=O)NS(=O)(=O)c1ccc(Cl)s1 | Mtb cholesterol medium: -10.63%; Mtb glucose medium: 21.97%
* O=C(O)C(F)(F)F.[H][C@@]12CCN(Cc3scnc3C)C[C@]1(C(=O)NCCOC)CCO2 | Mtb cholesterol medium: -10.09% & -7.558%; Mtb glucose medium: -9.544% & -5.07%